From PubChem BioAssay AID1487 (National Center for Advancing Translational Sciences (NCATS), 2009)
This is one part of the list. These are further read-outs of the screen, such as a control signal, another cell line or another target. No call is given for them. Most of these compounds were active or inconclusive in the main read-out, so they are no random draw. The note in brackets gives the kind of curve behind each potency; many fits are weak.

Test: qHTS Assay for Modulators of Lamin A Splicing
Settings: HeLa LMNA splicing GFP/RFP minigene ratio, 48 h
Procedure, shortened: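 S3 HeLa stable clones carrying a lamin A-EGFP splicing minigene plus DsRed2 were seeded at 600 cells/well in Opti-MEM with 2% FBS, pin-dosed and incubated 48 h at 37°C. Acumen cytometry (488 nm) gave the GFP/RFP total-intensity ratio.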

[1] = measured here: RFP viability control channel
[2] = measured here: GFP splicing reporter channel

SMILES	AC50 [1]	AC50 [2]
Cc1nc(C)c(/C(O)=C/c2nc3ccccc3oc2=O)s1	11.2 µM [rising, partial curve]	
COc1ccc(Nc2oc(COc3ccc(C)cc3)nc2C#N)cc1	31.6 µM [rising, single point]	
O=C(Nc1cccc(Cl)c1)NC1CC2CCC(C1)N2Cc1cccs1 (stereo not drawn)		4.47 µM [falling, partial curve, poor fit]
O=C(c1ccc2c(c1)OCCO2)C1CCN(C(=O)c2ccc(F)c(F)c2)CC1	25.1 µM [rising, single point]	12.6 µM [rising, partial curve]
CCOC(=O)/C(C#N)=C\c1c(OCC)n(CC)c2ccccc12	12.6 µM [rising, single point]	
O=C(c1cc2cc(Br)ccc2o1)N1CCCC1		2.82 µM [rising, single point]
Cn1nc(C(F)(F)F)c(C(=O)Nc2ccc(F)cc2F)c1Oc1cccc(Cl)c1	11.2 µM [rising, partial curve]	8.91 µM [rising, partial curve]
O=C(Nc1nc(-c2ccccc2)cs1)C1CCCCN1S(=O)(=O)c1ccccc1 (stereo not drawn)	14.1 µM [rising, partial curve]	
CCOC(=O)N1CCC(NC(=O)C2CCCN(C(=O)c3cc4sccc4n3C)C2)CC1 (stereo not drawn)	20 µM [rising, partial curve, poor fit]	
CC(Oc1ccc(Cl)cc1Cl)C(=O)NCCCCc1ccccc1 (stereo not drawn)	22.4 µM [rising, partial curve]	11.2 µM [rising, partial curve]
Nc1ccc(S(=O)(=O)Nc2ccc(Cl)nn2)cc1	0.0141 µM [rising, full curve, poor fit]	
COc1ccc(OC)c(-c2csc(NC(=O)c3ccc(OCC4CCCO4)cc3)n2)c1 (stereo not drawn)	2.82 µM [rising, full curve]	3.16 µM [rising, full curve]
Cc1nn(-c2ccccc2)c(C)c1NC(=O)COc1ccc(Br)cc1Cl	5.62 µM [rising, full curve, poor fit]	
CCOC(=O)c1c(OCCO)nn(-c2ccc(Cl)cc2)c1N	3.98 µM [falling, full curve, poor fit]	3.98 µM [falling, full curve, poor fit]
CCOC(=O)N1CCN(Cc2nc3cc(NC(=O)c4ccc(OC)cc4)ccc3n2C(C)C)CC1	14.1 µM [rising, partial curve]	
CC1(CCc2ccccc2)NC(=S)N(c2ccccc2)N1 (stereo not drawn)		15.8 µM [rising, single point]
O=C(Nc1ccc(Oc2ccccc2)cc1)c1ccco1	25.1 µM [rising, single point]	14.1 µM [rising, partial curve]
Nc1n[nH]c2cc(=O)n(-c3cccc(C(F)(F)F)c3)nc12		6.31 µM [falling, partial curve]
Cc1ccccc1OCC(O)CN1CCN(CC(O)COc2ccccc2C)CC1 (stereo not drawn)	22.4 µM [falling, single point]	35.5 µM [falling, single point]

Pulled by structure from the list above:
SMILES	AC50 [1]	AC50 [2]
COc1ccc(OC)c(-c2csc(NC(=O)c3ccc(OCC4CCCO4)cc3)n2)c1 (stereo not drawn)	2.82 µM [rising, full curve]	3.16 µM [rising, full curve]
COc1ccc(Nc2oc(COc3ccc(C)cc3)nc2C#N)cc1	31.6 µM [rising, single point]	

(next part)

SMILES	AC50 [1]	AC50 [2]
O=c1oc2ccccc2c(N2CCCC2)c1CN1CCCC1	11.2 µM [rising, partial curve]	
Cc1ccc(CN(C(=O)c2ccccc2F)c2ccccn2)o1	31.6 µM [rising, single point]	
Cc1nnc2n1N=CC=C(c1ccccc1)S2		35.5 µM [falling, single point]
O=C(c1ccc(Cl)c(S(=O)(=O)N2CCCC2)c1)N1CCN(c2ncccn2)CC1	0.00447 µM [falling, full curve]	
CCOc1ccc(C(=O)Nc2cccc(C(=O)OCc3cc(=O)n4nc(C5CC5)sc4n3)c2)cc1		6.31 µM [falling, full curve, poor fit]
CC1CCCCN1CCNc1nc(=S)[nH]c2ccccc12 (stereo not drawn)	3.98 µM [falling, single point]	
O=C(CSc1nc(O)cc(=O)n1-c1ccccc1)Nc1ccc(Br)cn1	3.55 µM [rising, partial curve, poor fit]	0.126 µM [rising, full curve, poor fit]
Cc1cc(NC(=O)CS(=O)(=O)c2cn(Cc3ccc(F)cc3)c3ccccc23)no1	35.5 µM [rising, single point]	
O=C(NCC1CCN(c2ccc(S(=O)(=O)N3CCOCC3)cc2)CC1)c1cccc(Cl)c1	20 µM [rising, single point]	
CCOC(=O)c1ccccc1NC(=O)CSc1nc(=O)[nH]c2c1CCC2	0.00316 µM [falling, full curve, poor fit]	
O=C(COC(=O)c1cccs1)Nc1cc(S(=O)(=O)N2CCOCC2)ccc1Cl		6.31 µM [falling, single point]
CCCS(=O)(=O)N1CC(=O)N(c2cc(C)ccc2C)C(C)(C(=O)NC2CCCCCC2)C1 (stereo not drawn)	0.0282 µM [falling, full curve]	0.0316 µM [falling, full curve]
CC(c1ccco1)N(C(=O)C12CC3CC(CC(C)(C3)C1)C2)c1ccccn1 (stereo not drawn)	17.8 µM [rising, partial curve]	11.2 µM [rising, partial curve, poor fit]
O=C(NC(=S)N1CCN(c2ccc(Cl)cc2[N+](=O)[O-])CC1)c1cccs1	15.8 µM [rising, single point]	
N#C/C(=C\c1ccc(Br)s1)C(=O)N1CCN(c2ccccc2)CC1	12.6 µM [rising, single point]	
CC(C)c1ccccc1NC(=O)COC(=O)c1cc(=O)[nH]c(=O)[nH]1	0.316 µM [falling, full curve, poor fit]	
CCn1c(CNc2ccc(Cl)cc2)nnc1SCc1ccc(C)cc1	35.5 µM [rising, single point]	
C/C(=N\NC(=O)c1ccccc1NC(=O)c1ccc(Cl)cc1)c1ccncc1	8.91 µM [falling, partial curve]	10 µM [falling, partial curve, poor fit]
